# Measurements taken from PubChem BioAssay AID1347076 (National Center for Advancing Translational Sciences (NCATS), 2019).
# About 13,000 (3.2%) of roughly 400,000 compounds were called active. This list was built around the results that the source calls inconclusive (neither active nor inactive); the mix of calls is not that of the screen. Calls come from the whole dose curve; as a rule, active = well fitted cell-killing curve with a large enough effect; inconclusive = small, poorly fitted or top-dose-only effect, or effect the other way; inactive = flat fitted curve, though single readings scatter. A potency beside an inconclusive call is a rough fit, not a confirmed value.
# Experiment: qHTS assay for MDR1-selective chemotherapeutics: Primary screen using the drug-selected MDR subline cells KB-V1; note: nearly all actives have a fitted effect of over 60% in size
# Settings: KB-V1 MDR cells viability, CellTiter-Glo, 72 h; activity change, negative = cytotoxicity: at 46.1 µM (top of the series)
# In short: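 Compound-treated KB-V1 multidrug-resistant cells, 72 h, 37 degrees C; viability by CellTiter-Glo. Fitted qHTS curves give the values.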
# % is set by controls: 0 for no effect and ±100 for the full control effect; potency is the fitted concentration of half-maximal effect.
Structure (SMILES),Potency,"activity change, negative = cytotoxicity"
Cc1ccc(Cn2nc(C)c(C=O)c2Cl)cc1,"inconclusive: 20.6 µM [cytotoxic, single point]",
C=CC1CN2CCC1CC2c1[nH]c2ccccc2c1CCO (stereo not given),"inconclusive: 16.4 µM [cytotoxic, partial curve, poor fit]",
O=C1NC(=O)N(CCC2=CCCCC2)C(=O)/C1=C\c1cccs1,,inactive: -9.93%
O=C(N/N=C/c1c(O)n(C2CC2)c(=S)[nH]c1=O)c1ccccc1,"inconclusive: 32.6 µM [cytotoxic, single point]",
CC(C)OCCCNC(=O)c1c(N)n(Cc2cccs2)c2nc3ccccc3nc12,"inconclusive: 29.1 µM [cytotoxic, single point]",
COc1ccccc1N1C(=O)NC(=O)/C(=C\c2cnn(-c3ccccc3)c2)C1=O,,inactive: -21.5%
CCCCOc1ccc(CCN)cc1Cl,,inactive: 0.735%
CCN(CC)C(=O)COc1cc(C)cc2oc(=O)c3c(c12)CCCC3,"inconclusive: 29.1 µM [cytotoxic, single point]",
COc1cc(C=C2C(=O)NC(=O)NC2=O)ccc1O,,inactive: -25.9%
NC(N)=N/N=C/c1cn(-c2ccccc2)nc1-c1cccs1,"inconclusive: 14.6 µM [cytotoxic, single point]",
COC(=O)C1=C(c2ccc(OCc3ccccc3)cc2)C[C@@H]2CC[C@H]1N2C(=O)NCc1cccc(C(F)(F)F)c1,"inconclusive: 23.1 µM [cytotoxic, partial curve, poor fit]",
CCC/C=N/O,,inactive: 11%
CN1CCCN(c2ccc([N+](=O)[O-])nc2)CC1,,inactive: 10.5%
COc1cccc(CC(=O)N(C)C2CCCN(Cc3ccccc3F)C2)c1 (stereo not given),,inactive: -6.48%
O=C(c1cccs1)c1cn(Cc2ccccc2Cl)c2ccccc12,active: 7.31 µM,
O=C(C(=C1N(Cc2ccc(Cl)nc2)CCN1Cc1ccc(Cl)nc1)[N+](=O)[O-])C(Cl)Cl,,inactive: 13.2%
O=C(NC1(C(F)(F)F)Oc2ccccc2O1)N1CCC2(CC1)OCCO2,"inconclusive: 29.1 µM [cytotoxic, single point]",
Cc1nn(Cc2ccccc2Cl)c(Cl)c1C(=O)OC(C(=O)NC(N)=O)C(C)C (stereo not given),"inconclusive: 10.3 µM [cytotoxic, partial curve, poor fit]",
ClCCN(CCCl)c1ccc(/C=C/c2sc3ccccc3[n+]2CCCCI)cc1,,inactive: 2.72%
O=C(Nc1cc(C(F)(F)F)cc(C(F)(F)F)c1)c1cccn(Cc2ccccc2Cl)c1=O,"inconclusive: 29.1 µM [rising, single point]",
COc1ccc(CN2CCN(C(=O)COc3cccc(C)c3)CC2)c(OC)c1,active: 2.31 µM,
CCCCn1c(O)c(C(C)=Nc2ccc(C(=O)O)cc2)c(=O)[nH]c1=O,,inactive: 11.1%
CC(=O)C1C(N2CC2)CC2C3CC=C4CC(O)CCC4(C)C3CCC21C (stereo not given),"inconclusive: 20.6 µM [cytotoxic, single point]",
O=P(O)(O)CN1CCNCCN(CP(=O)(O)O)CCNCC1,"inconclusive: 16.4 µM [cytotoxic, single point]",
O=C(NCc1cccnc1)Nc1ccccc1Cl,"inconclusive: 23.1 µM [rising, single point]",

# In the list so far, these contain nitrogen in an aromatic ring:
Structure (SMILES),Potency,"activity change, negative = cytotoxicity"
Cc1ccc(Cn2nc(C)c(C=O)c2Cl)cc1,"inconclusive: 20.6 µM [cytotoxic, single point]",
C=CC1CN2CCC1CC2c1[nH]c2ccccc2c1CCO (stereo not given),"inconclusive: 16.4 µM [cytotoxic, partial curve, poor fit]",
O=C(N/N=C/c1c(O)n(C2CC2)c(=S)[nH]c1=O)c1ccccc1,"inconclusive: 32.6 µM [cytotoxic, single point]",
CC(C)OCCCNC(=O)c1c(N)n(Cc2cccs2)c2nc3ccccc3nc12,"inconclusive: 29.1 µM [cytotoxic, single point]",
COc1ccccc1N1C(=O)NC(=O)/C(=C\c2cnn(-c3ccccc3)c2)C1=O,,inactive: -21.5%
NC(N)=N/N=C/c1cn(-c2ccccc2)nc1-c1cccs1,"inconclusive: 14.6 µM [cytotoxic, single point]",
CN1CCCN(c2ccc([N+](=O)[O-])nc2)CC1,,inactive: 10.5%
O=C(c1cccs1)c1cn(Cc2ccccc2Cl)c2ccccc12,active: 7.31 µM,
O=C(C(=C1N(Cc2ccc(Cl)nc2)CCN1Cc1ccc(Cl)nc1)[N+](=O)[O-])C(Cl)Cl,,inactive: 13.2%
Cc1nn(Cc2ccccc2Cl)c(Cl)c1C(=O)OC(C(=O)NC(N)=O)C(C)C (stereo not given),"inconclusive: 10.3 µM [cytotoxic, partial curve, poor fit]",
ClCCN(CCCl)c1ccc(/C=C/c2sc3ccccc3[n+]2CCCCI)cc1,,inactive: 2.72%
O=C(Nc1cc(C(F)(F)F)cc(C(F)(F)F)c1)c1cccn(Cc2ccccc2Cl)c1=O,"inconclusive: 29.1 µM [rising, single point]",
CCCCn1c(O)c(C(C)=Nc2ccc(C(=O)O)cc2)c(=O)[nH]c1=O,,inactive: 11.1%
O=C(NCc1cccnc1)Nc1ccccc1Cl,"inconclusive: 23.1 µM [rising, single point]",

# Later entries

Structure (SMILES),Potency,"activity change, negative = cytotoxicity"
O=C(Cc1ccc([N+](=O)[O-])cc1)N1CCN(Cc2ccc3c(c2)OCO3)CC1,"inconclusive: 16.4 µM [cytotoxic, single point]",
COC(=O)C1=C(c2ccc(C(C)=O)cc2)C[C@@H]2CC[C@H]1N2C(=O)NCCO,,inactive: 6.38%
O=C1NC(=O)C(=Cc2ccc(Cl)cc2)C(=O)N1,,inactive: 0%
O=C1C2CCN(CC2)C1(CO)CO,,inactive: 15.5%
COc1cccc(C(c2nnnn2-c2ccc3c(c2)OCCO3)N2CCC3(CC2)C(=O)NCN3c2ccccc2)c1OC (stereo not given),"inconclusive: 29.1 µM [cytotoxic, single point]",
O=C(CCCN1CCC(n2c(=O)[nH]c3ccccc32)CC1)c1ccc(F)cc1,"inconclusive: 11.6 µM [cytotoxic, partial curve]",
CCOC(=O)c1c(C)n(Cc2ccccc2)c2ccc(O)cc12,active: 10.3 µM,
CC(=O)Nc1ccccc1C(=O)OCc1ccc(C(=O)c2ccccc2)cc1,active: 6.51 µM,
CCCCn1c(O)c(C(C)=Nc2ccc(OCC)cc2)c(=O)[nH]c1=O,"inconclusive: 29.1 µM [cytotoxic, single point]",
COc1ccc(-c2nn(CCC#N)cc2C(=O)Nc2ccc(C(C)=O)cc2)cc1[N+](=O)[O-],"inconclusive: 16.4 µM [rising, partial curve, poor fit]",
Cc1cc(C(=O)N2CCC3(CC2)OCCO3)no1,,inactive: 5.53%
COC(=O)CC1(CC(=O)OC)C(=O)NC(=O)NC1=O,,inactive: -3.7%
CC1([N+](=O)[O-])COP(=O)(Nc2ccc(F)cc2)OC1 (stereo not given),,inactive: -1.71%
C/C(CC(c1ccccc1)c1c(O)c2ccccc2oc1=O)=N\NC(N)=S (stereo not given),"inconclusive: 5.17 µM [rising, full curve]",
CCNC(=O)N1Cc2ccccc2-n2nncc2C1,,inactive: 1.78%
CCC1(Cc2ccccc2)C(=O)NC(=S)N(C)C1=O (stereo not given),"inconclusive: 25.9 µM [cytotoxic, single point]",
COCCCn1c(-c2ccc(OC)cc2)cc(C(=O)NC2CCCCCCC2)c1C,,inactive: -19.4%
COc1ccccc1CNCCc1cccc(Cl)c1,"inconclusive: 18.4 µM [cytotoxic, partial curve, poor fit]",
O=C(CNC(=O)c1cccc(Cl)c1)Nc1ccc(Br)cc1C(=O)c1ccccc1,"inconclusive: 16.4 µM [cytotoxic, single point]",
COc1ccc(-n2nnnc2C(c2cccs2)N2CCC3(CC2)C(=O)NCN3c2ccccc2)cc1 (stereo not given),"inconclusive: 20.6 µM [cytotoxic, single point]",
CC(=O)NCC1=C(c2ccc3ccccc3c2)C[C@@H]2CC[C@H]1N2Cc1ccco1,,inactive: -2.27%
CN(C)c1ccc(C(=O)c2ccc(N(C)C)cc2)cc1,"inconclusive: 0.731 µM [cytotoxic, full curve, poor fit]",
Clc1cccc(C2NCc3ccccc3-n3cccc32)c1 (stereo not given),,inactive: 5.67%
CC1CCN(c2cc(Br)c([N+](=O)[O-])cc2F)CC1,,inactive: -6.04%
COc1ccc2[nH]c(C)c(CCNCc3cccnc3)c2c1,,inactive: 1.89%

# A different layout for part of the listing above.
Structure (SMILES)	Potency	activity change, negative = cytotoxicity
COC(=O)C1=C(c2ccc(C(C)=O)cc2)C[C@@H]2CC[C@H]1N2C(=O)NCCO		inactive: 6.38%
O=C1NC(=O)C(=Cc2ccc(Cl)cc2)C(=O)N1		inactive: 0%

# Additional compounds follow:

Structure (SMILES),Potency,"activity change, negative = cytotoxicity"
C[C@H]1COc2cc(N3CCN(C)CC3)ccc2S(=O)(=O)N1,,inactive: 15%
CCOc1c(Cl)cc(CNCCc2c[nH]c3ccccc23)cc1OC,active: 20.6 µM,
O=C1NC(=O)N(Cc2ccccc2)C(=O)/C1=C\C=C\c1ccco1,"inconclusive: 20.6 µM [cytotoxic, single point]",
CN(C(=O)Oc1cccc2cccnc12)c1ccccc1,"inconclusive: 20.6 µM [cytotoxic, single point]",
c1nc2nc3c(c(N4CCNCC4)n2n1)CCCC3,"inconclusive: 0.0291 µM [rising, full curve]",
CCCCc1nn2c(=O)cc(COC(=O)Cc3ccccc3)nc2s1,"inconclusive: 29.1 µM [rising, single point]",
C[C@]12CC[C@H](O)CC1=CCC1C2CC[C@@]2(C)C1C[C@@H](O)[C@@H]2O (stereo not given in full),,inactive: 1.75%
COc1cc2c(cc1OC)-c1c(OC)c(OC)cc3c1C(C2)N(C)CC3 (stereo not given),"inconclusive: 20.6 µM [cytotoxic, single point]",
COc1ccccc1OCCCn1cc(C(=O)C2CC2)c2ccccc21,"inconclusive: 3.26 µM [cytotoxic, full curve]",
CCN(CC)CCCOC(=O)C(OC(C)C)(c1ccccc1)c1ccccc1,active: 8.2 µM,
COC(=O)C1=C(c2cccc(OC)c2OC)C[C@@H]2CC[C@H]1N2C(=O)NCCO,"inconclusive: 16.4 µM [cytotoxic, single point]",
COc1c(C)cc(C(=O)C2CCCN(Cc3cnc(C)s3)C2)cc1C (stereo not given),"inconclusive: 18.4 µM [cytotoxic, partial curve, poor fit]",
CCCCCn1c(=O)c(C(=O)NC(C)c2ccccc2)c(O)c2ccccc21 (stereo not given),"inconclusive: 29.1 µM [cytotoxic, single point]",
Clc1ccc2c(c1)C(c1ccccc1Cl)=NCc1nnc(N3CCN(CCOc4ccccc4)CC3)n1-2,"inconclusive: 3.66 µM [rising, full curve, poor fit]",
CCOC(=O)Cn1cc(C(=O)c2ccccc2)c2ccccc21,,inactive: -14.4%
Cn1cc(NC(=O)CCl)cn1,"inconclusive: 18.4 µM [cytotoxic, single point]",
CCC(=O)O[C@H]1CC[C@H]2[C@@H]3CCC4=CC(=O)CC[C@]4(C)[C@H]3CC[C@]12C,"inconclusive: 18.4 µM [cytotoxic, partial curve, poor fit]",
CC(C)(C)P(=O)(N1CCOCC1)N1CCOCC1,"inconclusive: 23.1 µM [rising, single point]",
CCN(CC)C(=O)c1ccc(NC(=O)CNC(C)c2cccc3ccccc23)cc1 (stereo not given),"inconclusive: 23.1 µM [cytotoxic, partial curve, poor fit]",
CC1=CC2OC3CC4OC(=O)C=CC=CC(=O)OCCC(C)C(O)C(=O)OCC2(CC1O)C4(C)C31CO1 (stereo not given),active: 0.517 µM,
Cc1ccc(Cn2nnnc2CN2CCC(n3nnc4ccccc43)CC2)cc1,active: 5.8 µM,
O=C(O)c1ccc(N=Cc2c(O)[nH]c(=O)[nH]c2=O)cc1,"inconclusive: 18.4 µM [rising, single point]",
Cc1nc2sccc2c(=O)n1-c1ccccc1Cl,"inconclusive: 23.1 µM [cytotoxic, single point]",
O=C(CCc1ccccc1)N1Cc2cc(N3CCOCC3)ccc2-n2nncc2C1,,inactive: -11.5%
C=Cc1ccc(Cn2c(C)c(CNCCc3cc(OC)ccc3OC)c(C(=O)O)c2C)cc1,,inactive: 19.5%
